{
  "source": "patent US20240082282A1",
  "about": "(priority 2020, published 2024)",
  "origin": "cited, not measured here",
  "tested_on": "B. burgdorferi",
  "conditions": "doxycycline baits, after 2 years of application; cited from earlier work",
  "note": "For at least one compound, name, drawing or mass did not settle the structure.",
  "data": [
    {"compound": "C[C@H]1c2cccc(O)c2C(=O)C2=C(O)[C@]3(O)C(=O)C(C(N)=O)=C(O)[C@@H](N(C)C)[C@@H]3[C@@H](O)[C@@H]21", "note": "[Doxycycline]", "values": [
      {"measurement": "Reduction of B. burgdorferi recovery / infection cleared in Ixodes ticks", "result": 94, "unit": "%"},
      {"measurement": "Reduction of B. burgdorferi recovery / infection cleared in mammals (mice)", "result": 87, "unit": "%"}
    ]}
  ]
}
